The supplement of paper PMC6078165

Tested on: Hs578T
Assay: relative JC-1 red fluorescence (viability) vs pre-drug, coculture with fibroblast (fraction); higher = more viable cancer cells
Procedure: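 JC-1 labelled TNBC cells cocultured 1:1 (1,500 cells each) with CellTrace Violet stained primary or stromal fibroblasts in 384-well plates in FluoroBrite medium, treated with one of 42 anticancer drugs at 0.1, 1, 10 or 100 uM. JC-1 red fluorescence (mitochondrial integrity in cancer cells only) was read by plate reader every 8 h for 72 h. Values are normalised to each well's pre-drug value. The stock of one drug was tenfold lower, so its dose labels may be too high.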

COc1cc([C@@H]2c3cc4c(cc3[C@@H](O[C@@H]3O[C@@H]5CO[C@@H](c6cccs6)O[C@H]5[C@H](O)[C@H]3O)[C@H]3COC(=O)[C@H]23)OCO4)cc(OC)c1O [Teniposide]
relative JC-1 red fluorescence
Settings | 8 h | 16 h | 24 h | 32 h | 40 h | 48 h | 56 h | 64 h | 72 h
10 µM | 0.865 | 0.807 | 0.782 | 0.7398 | 0.6882 | 0.661 | 0.649 | 0.628 | 0.639
100 µM | 0.936 | 0.9 | 0.916 | 0.93 | 0.902 | 0.885 | 0.896 | 0.879 | 0.88

relative JC-1 red fluorescence
Settings | 8 h | 16 h | 24 h | 32 h | 40 h | 48 h | 56 h | 64 h | 72 h
10 µM, coculture fibroblast: C12385 | 0.8635 | 0.803 | 0.799 | 0.727 | 0.649 | 0.623 | 0.593 | 0.584 | 0.577
10 µM, coculture fibroblast: H6013 | 0.923 | 0.936 | 0.935 | 0.913 | 0.85 | 0.819 | 0.81 | 0.785 | 0.766
10 µM, coculture fibroblast: H6019 | 0.806 | 0.749 | 0.779 | 0.7 | 0.657 | 0.636 | 0.632 | 0.631 | 0.622
10 µM, coculture fibroblast: H6076 | 0.96 | 0.917 | 0.886 | 0.853 | 0.757 | 0.748 | 0.705 | 0.689 | 0.685
10 µM, coculture fibroblast: H6231 | 0.92 | 0.866 | 0.831 | 0.789 | 0.702 | 0.662 | 0.629 | 0.624 | 0.627
10 µM, coculture fibroblast: HADF | 0.894 | 0.9 | 0.864 | 0.824 | 0.784 | 0.753 | 0.725 | 0.709 | 0.672
10 µM, coculture fibroblast: HCFa | 0.873 | 0.869 | 0.844 | 0.802 | 0.766 | 0.772 | 0.752 | 0.762 | 0.743
10 µM, coculture fibroblast: HCPF | 0.927 | 0.883 | 0.862 | 0.809 | 0.742 | 0.704 | 0.686 | 0.659 | 0.643
10 µM, coculture fibroblast: HHSteC | 0.89 | 0.841 | 0.799 | 0.732 | 0.64 | 0.593 | 0.562 | 0.549 | 0.52
10 µM, coculture fibroblast: HMF | 0.897 | 0.845 | 0.81 | 0.805 | 0.728 | 0.69 | 0.661 | 0.64 | 0.629
10 µM, coculture fibroblast: HPFa | 0.9324 | 0.907 | 0.872 | 0.8 | 0.72 | 0.674 | 0.635 | 0.61 | 0.576
10 µM, coculture fibroblast: HUF | 0.8575 | 0.779 | 0.796 | 0.708 | 0.656 | 0.632 | 0.605 | 0.603 | 0.606
10 µM, coculture fibroblast: Hs27A | 0.9208 | 0.917 | 0.907 | 0.867 | 0.801 | 0.79 | 0.742 | 0.727 | 0.685
10 µM, coculture fibroblast: Hs343T | 0.9 | 0.819 | 0.785 | 0.758 | 0.692 | 0.663 | 0.63 | 0.618 | 0.619
10 µM, coculture fibroblast: WS1 | 0.807 | 0.775 | 0.79 | 0.704 | 0.662 | 0.665 | 0.649 | 0.659 | 0.658
100 µM, coculture fibroblast: C12385 | 0.921 | 0.917 | 0.9214 | 0.918 | 0.884 | 0.889 | 0.878 | 0.8783 | 0.863
100 µM, coculture fibroblast: H6013 | 0.947 | 0.736 | 0.794 | 0.809 | 0.845 | 0.766 | 0.872 | 0.845 | 0.938
100 µM, coculture fibroblast: H6019 | 0.898 | 0.849 | 0.793 | 0.821 | 0.791 | 0.869 | 0.815 | 0.815 | 0.799
100 µM, coculture fibroblast: H6076 | 0.722 | 0.778 | 0.747 | 0.7106 | 0.824 | 0.89 | 0.937 | 0.832 | 0.887
100 µM, coculture fibroblast: H6231 | 0.893 | 0.9449 | 0.95 | 0.943 | 0.923 | 0.945 | 0.937 | 0.9385 | 0.929
100 µM, coculture fibroblast: HADF | 0.873 | 0.873 | 0.934 | 0.755 | 0.902 | 0.847 | 0.956 | 0.87 | 0.87
100 µM, coculture fibroblast: HCFa | 0.872 | 0.816 | 0.794 | 0.778 | 0.936 | 0.798 | 0.948 | 0.927 | 0.919
100 µM, coculture fibroblast: HCPF | 0.874 | 0.922 | 0.908 | 0.889 | 0.852 | 0.861 | 0.872 | 0.835 | 0.83
100 µM, coculture fibroblast: HHSteC | 0.87 | 0.842 | 0.855 | 0.815 | 0.738 | 0.835 | 0.798 | 0.93 | 0.842
100 µM, coculture fibroblast: HMF | 0.914 | 0.956 | 0.942 | 0.935 | 0.889 | 0.859 | 0.879 | 0.863 | 0.875
100 µM, coculture fibroblast: HPFa | 0.906 | 0.842 | 0.926 | 0.9331 | 0.822 | 0.835 | 0.871 | 0.848 | 0.866
100 µM, coculture fibroblast: HUF | 0.899 | 0.8364 | 0.8689 | 0.8 | 0.771 | 0.769 | 0.748 | 0.774 | 0.782
100 µM, coculture fibroblast: Hs27A | 0.792 | 0.796 | 0.792 | 0.89 | 0.924 | 0.903 | 0.829 | 0.845 | 0.862
100 µM, coculture fibroblast: Hs343T | 0.9761 | 0.933 | 0.942 | 0.952 | 0.905 | 0.881 | 0.857 | 0.842 | 0.85
100 µM, coculture fibroblast: WS1 | 0.858 | 0.804 | 0.851 | 0.8077 | 0.81 | 0.853 | 0.859 | 0.9 | 0.901

The reference is the same well before dosing, and untreated signal decays as well.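 Fibroblast labels denote human fibroblasts, mainly primary ones from uterus (C12385, HUF), lung (H6013), bone (Hs27A), adrenal (HADF) and skin (WS1), plus mammary HMF and breast cancer-associated Hs343T. Cancer cells are basal-like or mesenchymal-like triple-negative breast cancer lines. A hit is a response shift exceeding 3x replicate standard deviation. The tissue of the other fibroblasts is not given here.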
